No constants are given. Whether binding was seen depends on the method and setting. In cells and extracts the contact can be indirect. Some results given as binding are weak or reduced against the parent protein; the word gives no strength.
Tests used:
[1] = molecular target: Myc-tagged mouse ClC-2 (mouse) (UniProt Q9R0A1); test: co-IP; co-expression in HEK293T cells; 10 uM MG132 for 24 h before lysis; IP buffer with 100 mM NaCl, 1% Triton X-100, pH 7.5; protein G sepharose beads pre-coated with anti-Myc or anti-HA, 16 h at 4 °C; immunoblotting
[2] = molecular target: Myc-tagged human cullin 4B (human) (UniProt Q13620); test: as above
[3] = molecular target: Myc-tagged human cullin 4A (human) (UniProt Q13619); test: as above
[4] = molecular target: HA-tagged rat cereblon (rat) (UniProt Q56AP7); test: as above
[5] = molecular target: endogenous ClC-2 of the mouse testis (mouse (endogenous in mouse testis)) (UniProt Q9R0A1); test: co-IP; mouse testis lysates immunoprecipitated with anti-ClC-2 or rabbit IgG, immunoblotting
[6] = molecular target: endogenous ClC-2 of the rat brain (rat (endogenous in rat brain)) (UniProt P35525); test: co-IP; rat whole brain lysates immunoprecipitated with anti-ClC-2 (rabbit IgG as control), immunoblotting with anti-ClC-2 or anti-CRBN

Amino acid sequences for entries named in this document (tags omitted).
UniProt Q9R0A1: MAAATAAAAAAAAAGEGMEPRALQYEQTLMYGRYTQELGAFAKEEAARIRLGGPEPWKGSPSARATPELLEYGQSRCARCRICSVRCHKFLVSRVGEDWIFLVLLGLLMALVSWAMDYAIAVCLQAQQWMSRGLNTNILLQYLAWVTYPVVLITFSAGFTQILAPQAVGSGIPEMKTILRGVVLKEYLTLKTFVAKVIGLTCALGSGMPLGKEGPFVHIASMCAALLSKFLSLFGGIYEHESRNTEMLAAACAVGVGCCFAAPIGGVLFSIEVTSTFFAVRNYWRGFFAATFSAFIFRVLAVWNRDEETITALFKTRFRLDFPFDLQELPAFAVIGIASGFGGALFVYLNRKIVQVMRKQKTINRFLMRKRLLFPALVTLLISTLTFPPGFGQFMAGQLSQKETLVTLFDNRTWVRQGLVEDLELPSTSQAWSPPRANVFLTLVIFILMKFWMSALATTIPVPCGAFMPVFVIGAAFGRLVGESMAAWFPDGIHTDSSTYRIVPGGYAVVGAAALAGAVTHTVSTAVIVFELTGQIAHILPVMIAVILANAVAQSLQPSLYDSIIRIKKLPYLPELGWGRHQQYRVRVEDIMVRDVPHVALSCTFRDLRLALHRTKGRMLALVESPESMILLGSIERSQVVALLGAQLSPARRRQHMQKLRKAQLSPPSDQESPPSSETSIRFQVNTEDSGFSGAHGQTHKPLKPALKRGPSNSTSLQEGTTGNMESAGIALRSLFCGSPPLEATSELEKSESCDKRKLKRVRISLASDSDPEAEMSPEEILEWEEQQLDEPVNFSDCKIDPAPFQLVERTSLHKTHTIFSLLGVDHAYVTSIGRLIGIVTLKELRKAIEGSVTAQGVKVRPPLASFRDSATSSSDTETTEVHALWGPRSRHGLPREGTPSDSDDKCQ
UniProt Q13620: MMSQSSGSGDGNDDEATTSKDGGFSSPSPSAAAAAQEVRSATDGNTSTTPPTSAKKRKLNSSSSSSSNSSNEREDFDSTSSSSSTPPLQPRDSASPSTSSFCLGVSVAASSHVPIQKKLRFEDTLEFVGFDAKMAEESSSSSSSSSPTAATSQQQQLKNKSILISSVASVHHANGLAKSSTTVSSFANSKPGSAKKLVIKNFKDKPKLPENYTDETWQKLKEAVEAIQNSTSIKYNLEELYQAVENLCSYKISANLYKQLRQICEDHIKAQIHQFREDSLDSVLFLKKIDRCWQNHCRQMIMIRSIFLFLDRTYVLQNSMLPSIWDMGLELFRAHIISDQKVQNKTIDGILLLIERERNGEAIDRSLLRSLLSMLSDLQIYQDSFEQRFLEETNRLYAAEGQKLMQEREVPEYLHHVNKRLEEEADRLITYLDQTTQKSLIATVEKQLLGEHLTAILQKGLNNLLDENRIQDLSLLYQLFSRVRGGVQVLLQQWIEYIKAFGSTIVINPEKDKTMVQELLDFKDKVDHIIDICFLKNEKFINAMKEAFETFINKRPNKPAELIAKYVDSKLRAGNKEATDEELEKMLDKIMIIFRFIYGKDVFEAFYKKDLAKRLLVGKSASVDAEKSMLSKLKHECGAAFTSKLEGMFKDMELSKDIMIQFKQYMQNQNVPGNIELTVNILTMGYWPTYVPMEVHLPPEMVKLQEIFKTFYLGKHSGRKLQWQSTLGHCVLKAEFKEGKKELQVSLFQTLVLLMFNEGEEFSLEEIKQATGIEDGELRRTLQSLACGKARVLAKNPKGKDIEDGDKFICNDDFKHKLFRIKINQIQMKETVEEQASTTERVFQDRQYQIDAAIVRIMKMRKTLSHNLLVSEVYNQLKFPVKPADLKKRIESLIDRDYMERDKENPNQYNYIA
UniProt Q13619: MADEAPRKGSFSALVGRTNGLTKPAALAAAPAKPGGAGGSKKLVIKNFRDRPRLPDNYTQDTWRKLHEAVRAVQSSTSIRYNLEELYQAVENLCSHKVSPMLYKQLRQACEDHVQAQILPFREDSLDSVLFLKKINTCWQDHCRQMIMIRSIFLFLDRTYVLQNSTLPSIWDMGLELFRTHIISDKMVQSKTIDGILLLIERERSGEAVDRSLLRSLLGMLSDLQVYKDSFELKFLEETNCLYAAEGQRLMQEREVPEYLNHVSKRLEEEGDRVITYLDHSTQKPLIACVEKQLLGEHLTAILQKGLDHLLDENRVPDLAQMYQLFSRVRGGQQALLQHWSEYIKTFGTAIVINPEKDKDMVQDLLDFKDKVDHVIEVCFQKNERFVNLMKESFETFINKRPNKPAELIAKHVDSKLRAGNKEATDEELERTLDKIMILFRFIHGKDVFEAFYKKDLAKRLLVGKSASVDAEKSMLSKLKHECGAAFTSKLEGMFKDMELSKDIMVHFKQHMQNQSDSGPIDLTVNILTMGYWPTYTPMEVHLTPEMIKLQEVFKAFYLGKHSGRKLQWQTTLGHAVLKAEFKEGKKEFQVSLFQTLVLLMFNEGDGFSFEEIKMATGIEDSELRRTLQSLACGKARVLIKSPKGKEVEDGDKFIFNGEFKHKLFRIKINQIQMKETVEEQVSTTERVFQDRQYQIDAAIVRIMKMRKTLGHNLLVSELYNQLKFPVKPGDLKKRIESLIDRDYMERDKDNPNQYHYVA
UniProt Q56AP7: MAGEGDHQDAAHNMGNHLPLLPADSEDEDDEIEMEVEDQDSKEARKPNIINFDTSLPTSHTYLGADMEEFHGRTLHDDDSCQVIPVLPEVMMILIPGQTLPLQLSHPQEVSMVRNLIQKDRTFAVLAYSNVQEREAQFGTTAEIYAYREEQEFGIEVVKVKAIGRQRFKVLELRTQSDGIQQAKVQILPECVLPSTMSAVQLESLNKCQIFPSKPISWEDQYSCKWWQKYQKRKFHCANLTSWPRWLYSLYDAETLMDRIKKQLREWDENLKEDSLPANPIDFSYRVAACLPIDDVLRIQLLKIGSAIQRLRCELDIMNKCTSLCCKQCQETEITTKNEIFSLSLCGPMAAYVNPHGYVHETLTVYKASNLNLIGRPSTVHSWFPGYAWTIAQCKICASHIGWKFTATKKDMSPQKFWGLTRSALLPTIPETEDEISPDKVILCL
UniProt P35525: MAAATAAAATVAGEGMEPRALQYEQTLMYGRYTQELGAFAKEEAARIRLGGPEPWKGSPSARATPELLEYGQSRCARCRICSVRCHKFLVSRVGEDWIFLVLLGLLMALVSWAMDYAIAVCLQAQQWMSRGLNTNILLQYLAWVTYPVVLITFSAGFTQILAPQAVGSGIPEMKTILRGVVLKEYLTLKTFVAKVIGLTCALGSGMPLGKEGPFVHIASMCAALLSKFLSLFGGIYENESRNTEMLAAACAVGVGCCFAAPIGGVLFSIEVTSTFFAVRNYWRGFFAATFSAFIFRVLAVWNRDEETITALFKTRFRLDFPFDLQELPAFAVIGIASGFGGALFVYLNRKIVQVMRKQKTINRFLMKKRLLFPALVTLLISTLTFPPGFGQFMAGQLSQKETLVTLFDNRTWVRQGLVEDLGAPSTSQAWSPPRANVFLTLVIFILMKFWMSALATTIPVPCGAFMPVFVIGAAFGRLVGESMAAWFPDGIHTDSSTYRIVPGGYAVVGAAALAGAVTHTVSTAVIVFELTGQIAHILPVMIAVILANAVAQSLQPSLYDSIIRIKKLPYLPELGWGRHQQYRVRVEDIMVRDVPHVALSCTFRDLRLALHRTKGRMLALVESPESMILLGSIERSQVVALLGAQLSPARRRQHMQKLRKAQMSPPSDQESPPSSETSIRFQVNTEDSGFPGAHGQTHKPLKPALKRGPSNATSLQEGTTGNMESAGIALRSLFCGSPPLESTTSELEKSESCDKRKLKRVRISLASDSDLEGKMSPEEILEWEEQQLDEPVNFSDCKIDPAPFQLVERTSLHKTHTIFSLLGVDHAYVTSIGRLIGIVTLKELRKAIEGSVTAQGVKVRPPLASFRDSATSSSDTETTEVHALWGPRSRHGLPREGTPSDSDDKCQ
UniProt Q16531: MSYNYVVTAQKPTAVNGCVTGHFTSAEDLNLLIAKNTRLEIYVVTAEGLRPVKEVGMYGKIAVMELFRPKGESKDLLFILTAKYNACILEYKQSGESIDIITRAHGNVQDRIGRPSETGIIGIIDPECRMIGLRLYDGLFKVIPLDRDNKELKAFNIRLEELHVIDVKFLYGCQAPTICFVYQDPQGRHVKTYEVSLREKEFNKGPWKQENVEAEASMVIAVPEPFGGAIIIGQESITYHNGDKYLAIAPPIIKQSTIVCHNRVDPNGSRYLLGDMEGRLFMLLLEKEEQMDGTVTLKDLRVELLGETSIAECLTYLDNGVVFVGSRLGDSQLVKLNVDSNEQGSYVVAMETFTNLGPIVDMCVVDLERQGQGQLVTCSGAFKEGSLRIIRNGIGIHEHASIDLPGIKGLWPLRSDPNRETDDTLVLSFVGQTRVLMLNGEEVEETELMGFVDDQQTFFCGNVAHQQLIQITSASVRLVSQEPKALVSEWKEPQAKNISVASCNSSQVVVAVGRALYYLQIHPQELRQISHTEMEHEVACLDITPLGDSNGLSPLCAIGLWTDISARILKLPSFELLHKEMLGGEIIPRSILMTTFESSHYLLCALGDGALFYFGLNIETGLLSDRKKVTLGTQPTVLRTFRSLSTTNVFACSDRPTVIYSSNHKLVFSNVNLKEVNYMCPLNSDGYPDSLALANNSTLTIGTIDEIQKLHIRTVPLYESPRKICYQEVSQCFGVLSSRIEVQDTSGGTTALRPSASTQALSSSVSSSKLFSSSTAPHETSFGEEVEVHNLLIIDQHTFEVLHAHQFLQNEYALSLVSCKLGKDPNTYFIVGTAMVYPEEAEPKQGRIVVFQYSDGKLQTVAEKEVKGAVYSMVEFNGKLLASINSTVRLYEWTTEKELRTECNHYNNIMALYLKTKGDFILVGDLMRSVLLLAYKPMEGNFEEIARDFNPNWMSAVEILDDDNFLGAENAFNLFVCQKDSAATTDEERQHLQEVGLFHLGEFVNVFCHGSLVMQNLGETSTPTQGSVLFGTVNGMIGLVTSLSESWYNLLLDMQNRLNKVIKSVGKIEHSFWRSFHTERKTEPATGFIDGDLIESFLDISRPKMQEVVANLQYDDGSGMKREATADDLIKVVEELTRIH
UniProt Q8C7D2: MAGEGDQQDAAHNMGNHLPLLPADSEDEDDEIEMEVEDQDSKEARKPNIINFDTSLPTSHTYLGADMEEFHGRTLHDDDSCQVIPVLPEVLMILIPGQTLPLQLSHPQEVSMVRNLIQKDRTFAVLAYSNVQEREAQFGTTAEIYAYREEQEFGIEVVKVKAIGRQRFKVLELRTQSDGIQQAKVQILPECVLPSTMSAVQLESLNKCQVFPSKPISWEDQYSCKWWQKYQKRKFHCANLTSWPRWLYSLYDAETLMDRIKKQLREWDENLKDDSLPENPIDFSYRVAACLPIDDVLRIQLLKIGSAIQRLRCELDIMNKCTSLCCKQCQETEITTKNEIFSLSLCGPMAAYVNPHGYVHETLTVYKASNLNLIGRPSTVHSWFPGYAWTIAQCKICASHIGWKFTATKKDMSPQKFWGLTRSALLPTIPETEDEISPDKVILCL

Question: How did the binding [1] turn out when “Flag-tagged human damage-specific DNA binding protein 1 (from UniProt Q16531 1-1140)” was run?
Answer: Its binding is “binds”.

Question: Which binding [2] does the source give for “N-terminal Flag-tagged mouse ClC-2 (from UniProt Q9R0A1 1-908)” here?
Answer: The binding was “binds”.

Question: What about the binding [3] of the same substance?
Answer: Its binding is “binds”.

Question: And the binding [4]?
Answer: Its binding is “binds”.

Question: For “endogenous cereblon of the mouse testis (from UniProt Q8C7D2 1-445)”, which binding [5] is on record?
Answer: Its binding is “binds”.

Question: Which binding [6] does the source give for “endogenous cereblon of the rat brain (from UniProt Q56AP7 1-445)” here?
Answer: The binding was “binds”.

— PMC7348978
